Reference: the supplement of paper PMC10849652
The list shows a part of the results.

Sequences of proteins named here, by UniProt entry; tags and fusion partners are left off. A change or cut given only in a name is not applied to a line headed by its entry.
UniProt P48067: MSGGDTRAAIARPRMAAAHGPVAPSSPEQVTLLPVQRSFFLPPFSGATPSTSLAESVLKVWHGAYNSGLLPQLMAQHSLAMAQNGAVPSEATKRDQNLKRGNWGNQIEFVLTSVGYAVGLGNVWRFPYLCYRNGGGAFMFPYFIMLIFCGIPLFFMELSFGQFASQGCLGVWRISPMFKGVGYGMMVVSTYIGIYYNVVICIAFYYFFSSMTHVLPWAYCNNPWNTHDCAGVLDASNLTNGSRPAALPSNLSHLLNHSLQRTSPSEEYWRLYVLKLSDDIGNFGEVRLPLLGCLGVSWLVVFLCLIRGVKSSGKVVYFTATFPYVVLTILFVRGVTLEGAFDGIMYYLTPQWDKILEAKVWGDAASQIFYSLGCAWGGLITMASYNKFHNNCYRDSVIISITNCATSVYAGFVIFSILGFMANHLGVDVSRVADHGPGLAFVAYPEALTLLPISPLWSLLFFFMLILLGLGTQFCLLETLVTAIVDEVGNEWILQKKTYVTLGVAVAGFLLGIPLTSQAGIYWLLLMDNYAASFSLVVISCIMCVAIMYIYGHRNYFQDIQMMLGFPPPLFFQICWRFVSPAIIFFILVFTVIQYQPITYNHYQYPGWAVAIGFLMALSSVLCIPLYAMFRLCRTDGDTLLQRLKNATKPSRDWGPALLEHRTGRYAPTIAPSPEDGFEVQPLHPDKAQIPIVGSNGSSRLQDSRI
UniProt Q6XR72: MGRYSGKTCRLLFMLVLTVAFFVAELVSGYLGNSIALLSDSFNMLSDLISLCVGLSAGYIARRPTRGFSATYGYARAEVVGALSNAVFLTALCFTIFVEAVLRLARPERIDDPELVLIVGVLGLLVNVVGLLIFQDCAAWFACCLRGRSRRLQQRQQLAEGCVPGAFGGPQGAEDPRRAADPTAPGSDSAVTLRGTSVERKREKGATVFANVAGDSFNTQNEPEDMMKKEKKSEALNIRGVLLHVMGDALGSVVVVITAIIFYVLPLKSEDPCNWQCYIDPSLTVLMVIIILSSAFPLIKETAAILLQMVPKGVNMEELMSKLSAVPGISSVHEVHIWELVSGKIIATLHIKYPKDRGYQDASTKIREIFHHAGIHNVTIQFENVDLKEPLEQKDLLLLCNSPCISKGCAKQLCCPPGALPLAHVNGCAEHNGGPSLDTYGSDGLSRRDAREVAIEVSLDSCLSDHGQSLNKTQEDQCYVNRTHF
UniProt P04920: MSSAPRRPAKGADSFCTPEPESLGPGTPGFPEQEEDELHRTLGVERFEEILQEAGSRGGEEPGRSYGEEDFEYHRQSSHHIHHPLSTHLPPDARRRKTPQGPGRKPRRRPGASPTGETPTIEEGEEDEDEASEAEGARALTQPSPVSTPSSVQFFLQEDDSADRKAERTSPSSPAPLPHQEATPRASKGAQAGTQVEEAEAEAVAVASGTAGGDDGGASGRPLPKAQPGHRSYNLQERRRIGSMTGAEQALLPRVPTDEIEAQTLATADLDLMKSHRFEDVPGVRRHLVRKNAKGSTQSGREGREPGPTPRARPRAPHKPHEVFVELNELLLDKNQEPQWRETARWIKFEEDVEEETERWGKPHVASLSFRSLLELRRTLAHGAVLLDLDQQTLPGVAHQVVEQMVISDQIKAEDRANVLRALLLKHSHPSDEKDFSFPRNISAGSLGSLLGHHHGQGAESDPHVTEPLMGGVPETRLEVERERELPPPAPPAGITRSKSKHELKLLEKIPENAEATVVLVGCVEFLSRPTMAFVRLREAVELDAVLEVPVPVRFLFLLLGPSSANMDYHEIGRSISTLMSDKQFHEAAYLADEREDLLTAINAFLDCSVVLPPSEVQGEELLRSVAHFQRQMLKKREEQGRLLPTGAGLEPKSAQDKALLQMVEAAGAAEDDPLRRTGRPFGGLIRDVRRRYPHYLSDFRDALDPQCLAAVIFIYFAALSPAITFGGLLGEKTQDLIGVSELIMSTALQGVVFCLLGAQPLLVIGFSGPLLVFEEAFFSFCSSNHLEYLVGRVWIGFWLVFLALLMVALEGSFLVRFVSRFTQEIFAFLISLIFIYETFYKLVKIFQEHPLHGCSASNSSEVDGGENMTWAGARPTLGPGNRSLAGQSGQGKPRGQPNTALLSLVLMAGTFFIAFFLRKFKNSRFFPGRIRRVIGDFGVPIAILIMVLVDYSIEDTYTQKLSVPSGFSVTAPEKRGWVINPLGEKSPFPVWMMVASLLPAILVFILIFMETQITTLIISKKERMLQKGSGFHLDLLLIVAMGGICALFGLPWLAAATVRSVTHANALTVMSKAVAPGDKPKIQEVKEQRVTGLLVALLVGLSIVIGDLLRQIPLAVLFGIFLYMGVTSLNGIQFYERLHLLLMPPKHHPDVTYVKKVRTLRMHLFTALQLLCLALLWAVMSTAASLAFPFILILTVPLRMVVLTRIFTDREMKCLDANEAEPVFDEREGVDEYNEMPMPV
UniProt Q86VD7: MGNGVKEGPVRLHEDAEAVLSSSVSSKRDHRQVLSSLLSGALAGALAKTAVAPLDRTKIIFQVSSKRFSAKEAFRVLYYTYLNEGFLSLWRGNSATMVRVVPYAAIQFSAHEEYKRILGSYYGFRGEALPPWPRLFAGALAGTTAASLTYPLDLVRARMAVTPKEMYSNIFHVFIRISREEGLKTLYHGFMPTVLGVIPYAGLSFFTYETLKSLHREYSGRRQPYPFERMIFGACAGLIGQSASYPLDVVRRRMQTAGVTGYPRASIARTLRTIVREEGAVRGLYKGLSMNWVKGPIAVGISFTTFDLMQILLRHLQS
UniProt P78383: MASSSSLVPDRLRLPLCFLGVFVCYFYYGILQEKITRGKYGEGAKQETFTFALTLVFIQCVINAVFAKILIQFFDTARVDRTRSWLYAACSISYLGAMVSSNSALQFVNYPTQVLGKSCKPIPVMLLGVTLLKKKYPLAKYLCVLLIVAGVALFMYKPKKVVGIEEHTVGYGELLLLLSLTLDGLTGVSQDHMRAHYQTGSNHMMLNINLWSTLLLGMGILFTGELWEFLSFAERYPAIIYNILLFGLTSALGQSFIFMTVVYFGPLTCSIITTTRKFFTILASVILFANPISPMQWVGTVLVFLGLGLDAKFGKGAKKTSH
UniProt Q8NEW0: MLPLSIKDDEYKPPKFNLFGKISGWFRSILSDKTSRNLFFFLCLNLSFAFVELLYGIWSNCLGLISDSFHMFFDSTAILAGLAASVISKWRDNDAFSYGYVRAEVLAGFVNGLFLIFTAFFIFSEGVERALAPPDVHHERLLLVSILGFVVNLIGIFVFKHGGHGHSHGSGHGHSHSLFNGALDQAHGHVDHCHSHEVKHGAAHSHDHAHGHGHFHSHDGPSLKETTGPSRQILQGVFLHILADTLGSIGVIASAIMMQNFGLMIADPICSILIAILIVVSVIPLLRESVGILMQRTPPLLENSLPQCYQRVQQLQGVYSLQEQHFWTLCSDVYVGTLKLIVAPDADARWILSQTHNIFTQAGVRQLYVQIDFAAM
UniProt P0CK96: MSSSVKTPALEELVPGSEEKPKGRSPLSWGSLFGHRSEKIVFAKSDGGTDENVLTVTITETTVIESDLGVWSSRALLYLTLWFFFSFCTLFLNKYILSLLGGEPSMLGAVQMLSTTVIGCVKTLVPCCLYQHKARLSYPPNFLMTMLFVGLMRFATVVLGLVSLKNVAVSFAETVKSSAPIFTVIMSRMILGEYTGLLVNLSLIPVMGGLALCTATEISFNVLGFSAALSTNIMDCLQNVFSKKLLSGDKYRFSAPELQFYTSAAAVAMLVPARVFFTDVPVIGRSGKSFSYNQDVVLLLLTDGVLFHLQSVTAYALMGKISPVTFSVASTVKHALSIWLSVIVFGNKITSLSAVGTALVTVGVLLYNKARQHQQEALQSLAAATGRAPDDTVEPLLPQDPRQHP
UniProt Q6NT16: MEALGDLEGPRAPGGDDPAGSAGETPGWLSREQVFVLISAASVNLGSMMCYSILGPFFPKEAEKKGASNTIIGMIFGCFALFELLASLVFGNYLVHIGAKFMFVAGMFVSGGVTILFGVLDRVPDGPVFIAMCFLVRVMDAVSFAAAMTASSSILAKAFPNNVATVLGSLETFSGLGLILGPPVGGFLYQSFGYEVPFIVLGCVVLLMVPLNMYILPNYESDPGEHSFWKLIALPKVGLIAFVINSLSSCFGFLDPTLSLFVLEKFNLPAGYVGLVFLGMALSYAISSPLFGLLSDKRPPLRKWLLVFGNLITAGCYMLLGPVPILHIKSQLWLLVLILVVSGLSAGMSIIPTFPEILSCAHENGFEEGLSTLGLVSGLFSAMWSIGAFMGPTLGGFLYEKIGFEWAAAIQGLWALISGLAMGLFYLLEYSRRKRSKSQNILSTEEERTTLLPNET
UniProt Q3KQZ1: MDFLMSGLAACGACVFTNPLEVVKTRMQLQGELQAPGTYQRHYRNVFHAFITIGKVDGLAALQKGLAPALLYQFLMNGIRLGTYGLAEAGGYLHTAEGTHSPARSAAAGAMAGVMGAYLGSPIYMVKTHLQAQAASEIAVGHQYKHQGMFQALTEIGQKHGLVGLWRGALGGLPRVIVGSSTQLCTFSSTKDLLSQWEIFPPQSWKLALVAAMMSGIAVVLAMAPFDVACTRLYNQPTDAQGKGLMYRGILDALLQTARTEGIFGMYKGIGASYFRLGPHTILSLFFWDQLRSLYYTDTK
UniProt Q9NUM3: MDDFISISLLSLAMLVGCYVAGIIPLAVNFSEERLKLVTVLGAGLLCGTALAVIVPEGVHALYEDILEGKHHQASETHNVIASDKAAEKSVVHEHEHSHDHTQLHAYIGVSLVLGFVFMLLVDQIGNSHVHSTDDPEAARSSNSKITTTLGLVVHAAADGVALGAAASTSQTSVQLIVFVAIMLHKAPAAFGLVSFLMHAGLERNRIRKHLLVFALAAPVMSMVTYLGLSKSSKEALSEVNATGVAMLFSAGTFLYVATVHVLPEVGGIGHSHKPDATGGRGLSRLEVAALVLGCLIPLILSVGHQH
UniProt P48751: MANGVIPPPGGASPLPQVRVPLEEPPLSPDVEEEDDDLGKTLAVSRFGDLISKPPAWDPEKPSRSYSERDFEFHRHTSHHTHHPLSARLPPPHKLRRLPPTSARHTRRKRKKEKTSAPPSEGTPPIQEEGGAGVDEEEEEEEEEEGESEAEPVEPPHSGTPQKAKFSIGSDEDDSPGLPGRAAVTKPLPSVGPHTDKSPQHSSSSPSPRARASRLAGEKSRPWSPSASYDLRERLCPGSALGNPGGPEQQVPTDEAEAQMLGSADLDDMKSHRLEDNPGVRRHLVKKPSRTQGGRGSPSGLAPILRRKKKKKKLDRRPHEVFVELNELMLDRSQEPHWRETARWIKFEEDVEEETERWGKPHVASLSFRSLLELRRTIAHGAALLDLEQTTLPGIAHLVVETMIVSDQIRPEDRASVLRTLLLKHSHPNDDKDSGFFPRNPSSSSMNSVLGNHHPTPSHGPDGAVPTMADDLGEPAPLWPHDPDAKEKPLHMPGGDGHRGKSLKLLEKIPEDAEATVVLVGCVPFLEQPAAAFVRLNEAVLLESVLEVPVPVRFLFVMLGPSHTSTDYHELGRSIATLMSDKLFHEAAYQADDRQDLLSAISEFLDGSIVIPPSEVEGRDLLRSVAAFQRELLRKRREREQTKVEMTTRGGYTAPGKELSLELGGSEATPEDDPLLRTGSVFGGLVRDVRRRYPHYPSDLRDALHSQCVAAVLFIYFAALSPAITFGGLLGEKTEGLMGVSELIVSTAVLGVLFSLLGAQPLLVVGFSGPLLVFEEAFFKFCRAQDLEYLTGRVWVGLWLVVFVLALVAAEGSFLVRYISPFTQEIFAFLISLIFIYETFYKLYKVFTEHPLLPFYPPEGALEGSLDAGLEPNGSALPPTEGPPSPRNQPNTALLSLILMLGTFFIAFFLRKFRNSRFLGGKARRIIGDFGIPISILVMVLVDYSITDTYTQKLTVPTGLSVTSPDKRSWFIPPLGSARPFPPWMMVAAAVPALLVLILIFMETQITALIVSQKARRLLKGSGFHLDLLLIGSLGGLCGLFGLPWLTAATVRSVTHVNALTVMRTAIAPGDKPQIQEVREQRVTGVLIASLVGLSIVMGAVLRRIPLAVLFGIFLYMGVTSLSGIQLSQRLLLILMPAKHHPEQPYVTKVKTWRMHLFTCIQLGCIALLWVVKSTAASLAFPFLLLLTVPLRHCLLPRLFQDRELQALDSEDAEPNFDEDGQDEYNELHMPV
UniProt Q9HAB3: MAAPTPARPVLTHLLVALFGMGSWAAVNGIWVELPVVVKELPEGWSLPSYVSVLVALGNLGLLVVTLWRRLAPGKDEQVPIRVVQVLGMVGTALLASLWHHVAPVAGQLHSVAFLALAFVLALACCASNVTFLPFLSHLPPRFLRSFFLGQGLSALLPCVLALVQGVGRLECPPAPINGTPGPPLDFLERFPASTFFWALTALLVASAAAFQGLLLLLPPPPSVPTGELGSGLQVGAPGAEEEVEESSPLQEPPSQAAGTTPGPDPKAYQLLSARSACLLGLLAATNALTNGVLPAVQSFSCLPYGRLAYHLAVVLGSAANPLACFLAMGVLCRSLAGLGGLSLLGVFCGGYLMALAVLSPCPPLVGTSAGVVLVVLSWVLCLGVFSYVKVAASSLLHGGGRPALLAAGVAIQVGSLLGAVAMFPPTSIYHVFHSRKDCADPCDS

Tests used:
Experiment in all cases: log2 fold change, soluble protein after heating vs DMSO (PISA); higher = thermal stabilisation; K562 cells, 10 uM, 30 min; active = over 0.2 and 3.5 SD of the protein, either way, in both replicates (recomputed)
[1] = compound: CS(=O)(=O)c1ccc(-c2cnc(N)c(C(=O)Nc3ccccc3)n2)cc1
In short: (§1)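 K562 cells (2×10^6 cells/mL) were treated with 10 μM compound for 30 min, and aliquots were heated for 3 min over 48°C-58°C. Pooled aliquots were extracted in PBS with 0.5% NP-40 at 4°C, and the supernatant after 21,000xg for 90 min was measured by TMTpro 16plex LC-MS/MS with channel sums equalised. Reported thermal stability, relative to control samples and from duplicates, is a log2 fold change.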

crizotinib = compound: C[C@@H](Oc1cc(-c2cnn(C3CCNCC3)c2)cnc1N)c1c(Cl)ccc(F)c1Cl [crizotinib]
In short: as §1

[2] = compound: C[C@@H]1COCCN1C2=NC(=NC(=C2)C3(CC3)S(=O)(=O)C)C4=C5C=CNC5=CC=C4
In short: as §1

[3] = compound: C[C@H](C1=CC=C(C=C1)C(=O)NC2=C3C=CNC3=NC=C2)N
In short: as §1

gandotinib = compound: Cc1cc(Nc2cc(CN3CCOCC3)c3nc(C)c(Cc4ccc(Cl)cc4F)n3n2)n[nH]1 [gandotinib]
In short: as §1

[4] = compound: Cc1cc(SCc2sc(-c3ccc(C(F)(F)F)cc3)nc2C)ccc1OCC(=O)O
In short: as §1

doramapimod = compound: Cc1ccc(-n2nc(C(C)(C)C)cc2NC(=O)Nc2ccc(OCCN3CCOCC3)c3ccccc23)cc1 [doramapimod]
In short: as §1

ispinesib = compound: Cc1ccc(C(=O)N(CCCN)[C@@H](c2nc3cc(Cl)ccc3c(=O)n2Cc2ccccc2)C(C)C)cc1 [ispinesib]
In short: as §1

bafetinib = compound: Cc1ccc(NC(=O)c2ccc(CN3CC[C@H](N(C)C)C3)c(C(F)(F)F)c2)cc1Nc1nccc(-c2cncnc2)n1 [bafetinib]
In short: as §1

[5] = compound: Cc1cccc(CC(=O)N2CCc3c2ccc(-c2cn(C)c4ncnc(N)c24)c3F)n1
In short: as §1

nilotinib = compound: Cc1cn(-c2cc(NC(=O)c3ccc(C)c(Nc4nccc(-c5cccnc5)n4)c3)cc(C(F)(F)F)c2)cn1 [nilotinib]
In short: as §1

[6] = compound: Cc1nc(Nc2n[nH]c3c2CN(C(=O)N[C@H](CN(C)C)c2ccccc2)C3(C)C)c2sccc2n1
In short: as §1

dasatinib = compound: Cc1nc(Nc2ncc(C(=O)Nc3c(C)cccc3Cl)s2)cc(N2CCN(CCO)CC2)n1 [dasatinib]
In short: as §1

[7] = compound: Cc1ncc(-c2ccnc(Nc3ccc(S(C)(=O)=O)cc3)n2)n1C(C)C
In short: as §1

[8] = compound: Cn1cc(-c2ccc3c(c2)CCN3C(=O)Cc2cccc(C(F)(F)F)c2)c2c(N)ncnc21
In short: as §1

[9] = compound: Cn1cc(-c2ccc3nnc(C(F)(F)c4ccc5ncccc5c4)n3n2)cn1
In short: as §1

tipifarnib = compound: Cn1cncc1[C@@](N)(c1ccc(Cl)cc1)c1ccc2c(c1)c(-c1cccc(Cl)c1)cc(=O)n2C [tipifarnib]
In short: as §1

mubritinib = compound: FC(F)(F)c1ccc(/C=C/c2nc(COc3ccc(CCCCn4ccnn4)cc3)co2)cc1 [mubritinib]
In short: as §1

duvelisib = compound: C[C@H](Nc1ncnc2nc[nH]c12)c1cc2cccc(Cl)c2c(=O)n1-c1ccccc1 [duvelisib]
In short: as §1

tozasertib = compound: Cc1cc(Nc2cc(N3CCN(C)CC3)nc(Sc3ccc(NC(=O)C4CC4)cc3)n2)n[nH]1 [tozasertib]
In short: as §1

Target	log2 fold change [1]	log2 fold change (crizotinib)	log2 fold change [2]	log2 fold change [3]	log2 fold change (gandotinib)	log2 fold change [4]	log2 fold change (doramapimod)	log2 fold change (ispinesib)	log2 fold change (bafetinib)	log2 fold change [5]	log2 fold change (nilotinib)	log2 fold change [6]	log2 fold change (dasatinib)	log2 fold change [7]	log2 fold change [8]	log2 fold change [9]	log2 fold change (tipifarnib)	log2 fold change (mubritinib)	log2 fold change (duvelisib)	log2 fold change (tozasertib)
SLC25A39 (UniProt Q9BZJ4)	inactive: -0.029	inactive: -0.025	inactive: 0.14	inactive: -0.165	inactive: 0.075	inactive: -0.08	inactive: -0.079	inactive: -0.523	inactive: -0.182	inactive: -0.397	inactive: -0.136	inactive: -0.119	inactive: -0.035	inactive: 0.035	inactive: 0.081	inactive: 0.092	inactive: 0.009	inactive: 0.104	–	–
SLC35A1 (UniProt P78382)	inactive: -0.017	inactive: 0.056	inactive: 0.044	inactive: -0.196	–	inactive: 0.074	inactive: -0.039	inactive: 0.04	inactive: 0.005	–	inactive: -0.009	inactive: -0.055	inactive: 0.036	inactive: -0.02	inactive: 0.03	inactive: 0.067	inactive: -0.022	inactive: 0.049	–	–
SLC6A9 (UniProt P48067)	inactive: -0.071	inactive: 0.051	–	inactive: 0.022	inactive: -0.007	inactive: -0.062	inactive: -0.028	inactive: 0.065	inactive: -0.097	inactive: 0.015	inactive: 0.084	inactive: 0.012	inactive: -0.041	inactive: -0.008	inactive: 0.089	inactive: -0.021	inactive: 0.038	inactive: 0.042	inactive: 0.09	inactive: -0.052
SLC27A4 (UniProt Q6P1M0)	inactive: -0.008	inactive: 0.069	inactive: 0.059	inactive: -0.015	inactive: 0.122	inactive: 0.123	inactive: 0	inactive: -0.103	inactive: -0.026	inactive: 0.022	inactive: -0.098	inactive: -0.101	inactive: -0.113	inactive: 0.011	inactive: 0.003	inactive: 0.009	inactive: 0.124	active: 0.598	–	–
SLC30A10 (UniProt Q6XR72)	inactive: 0.11	inactive: 0.192	inactive: 0.178	inactive: -0.001	inactive: -0.078	inactive: -0.046	inactive: 0.035	inactive: 0.077	inactive: -0.019	inactive: -0.148	inactive: 0.029	inactive: -0.061	inactive: 0.016	inactive: 0.043	inactive: 0.078	inactive: -0.026	inactive: 0.067	inactive: -0.007	–	–
SLC4A2 (UniProt P04920)	inactive: 0.114	inactive: -0.053	inactive: 0.013	inactive: 0.126	inactive: -0.075	inactive: -0.058	inactive: 0.07	inactive: -0.099	inactive: -0.101	inactive: -0.037	inactive: 0.027	inactive: -0.165	inactive: -0.125	inactive: 0.043	inactive: 0.023	inactive: -0.045	inactive: -0.068	inactive: 0.029	–	–
SLC27A2 (UniProt O14975)	active: 0.273	inactive: 0.046	inactive: -0.005	inactive: -0.031	inactive: 0.094	inactive: 0.108	inactive: 0.027	inactive: -0.056	inactive: 0.044	inactive: 0.005	inactive: 0.179	inactive: -0.104	inactive: -0.106	inactive: 0.025	inactive: 0.054	inactive: 0.073	inactive: 0.187	inactive: -0.001	–	–
SLC44A2 isoform 2 (UniProt Q8IWA5)	inactive: 0.019	inactive: 0.113	inactive: 0.026	inactive: -0.123	inactive: -0.017	inactive: -0.046	inactive: 0.055	inactive: 0.069	inactive: 0.058	inactive: -0.053	inactive: 0.13	inactive: 0.008	inactive: 0.064	inactive: 0.068	inactive: 0.084	inactive: -0.076	–	inactive: 0.045	–	–
SLC25A42 (UniProt Q86VD7)	inactive: -0.054	inactive: 0.028	inactive: 0.015	inactive: -0.055	inactive: 0.09	inactive: -0.003	inactive: -0.004	inactive: 0.054	inactive: -0.081	inactive: -0.069	inactive: 0.009	inactive: -0.024	inactive: -0.025	inactive: 0.048	inactive: -0.022	inactive: -0.049	inactive: 0.017	inactive: 0.051	–	–
SLC39A8 (UniProt Q9C0K1)	inactive: 0.005	–	inactive: -0.087	inactive: -0.234	inactive: -0.1	inactive: -0.016	–	inactive: -0.091	inactive: -0.069	inactive: -0.13	inactive: 0.036	inactive: -0.035	inactive: 0	inactive: -0.006	inactive: 0.026	inactive: 0.031	inactive: 0.02	inactive: 0.05	inactive: -0.029	inactive: -0.017
SLC35B1 isoform 2 (UniProt P78383)	inactive: 0.049	inactive: -0.053	inactive: -0.042	active: -0.535	–	inactive: 0	inactive: -0.061	inactive: -0.043	inactive: -0.018	–	inactive: -0.065	inactive: 0.052	inactive: 0.142	inactive: -0.097	inactive: -0.13	inactive: -0.172	–	inactive: 0.016	–	–
SLC30A7 (UniProt Q8NEW0)	inactive: -0.01	inactive: 0.014	inactive: -0.022	inactive: -0.048	active: -0.348	inactive: -0.007	inactive: -0.057	inactive: -0.016	inactive: -0.169	inactive: -0.094	inactive: -0.16	inactive: 0.052	inactive: 0.04	inactive: 0.003	inactive: 0.048	inactive: -0.026	inactive: 0.023	inactive: 0.107	–	–
SLC35E2B (UniProt P0CK96)	inactive: -0.046	inactive: -0.127	–	inactive: 0.312	–	–	inactive: -0.079	inactive: -0.227	inactive: -0.057	–	–	–	–	–	inactive: -0.066	inactive: 0.036	inactive: 0.104	inactive: 0.055	–	–
SLC18B1 (UniProt Q6NT16)	inactive: 0.027	active: -0.404	inactive: 0.06	inactive: -0.034	inactive: 0.092	inactive: -0.07	inactive: -0.002	inactive: -0.193	inactive: -0.071	inactive: 0	inactive: -0.024	inactive: 0.04	inactive: 0.063	inactive: -0.016	inactive: 0.034	inactive: 0.198	inactive: -0.029	inactive: -0.018	–	–
SLC25A35 (UniProt Q3KQZ1)	–	inactive: 0.116	–	inactive: 0.036	inactive: 0.136	inactive: -0.18	inactive: -0.076	–	–	inactive: -0.116	–	–	inactive: 0.054	–	inactive: 0.056	–	inactive: 0.362	–	inactive: -0.046	inactive: -0.043
SLC39A9 (UniProt Q9NUM3)	–	–	–	inactive: 0.049	–	–	–	–	–	–	–	–	–	–	inactive: 0.159	–	–	–	–	inactive: 0.031
SLC4A3 isoform 3 (UniProt P48751)	–	–	–	–	–	–	–	–	inactive: 0.072	–	inactive: -0.198	inactive: 0.044	–	inactive: -0.205	–	–	–	inactive: 0.06	–	–
SLC52A2 (UniProt Q9HAB3)	–	–	–	–	inactive: 0.056	–	–	–	inactive: 0.074	inactive: 0.277	inactive: 0.079	inactive: 0.014	–	inactive: -0.02	–	–	–	inactive: 0	–	inactive: 0.229

Record cards (already shown). Values in the order: log2 fold change [1] | log2 fold change (crizotinib) | log2 fold change [2] | log2 fold change [3] | log2 fold change (gandotinib) | log2 fold change [4] | log2 fold change (doramapimod) | log2 fold change (ispinesib) | log2 fold change (bafetinib) | log2 fold change [5] | log2 fold change (nilotinib) | log2 fold change [6] | log2 fold change (dasatinib) | log2 fold change [7] | log2 fold change [8] | log2 fold change [9] | log2 fold change (tipifarnib) | log2 fold change (mubritinib) | log2 fold change (duvelisib) | log2 fold change (tozasertib)
SLC30A7 (UniProt Q8NEW0) in the list: inactive: -0.01 | inactive: 0.014 | inactive: -0.022 | inactive: -0.048 | active: -0.348 | inactive: -0.007 | inactive: -0.057 | inactive: -0.016 | inactive: -0.169 | inactive: -0.094 | inactive: -0.16 | inactive: 0.052 | inactive: 0.04 | inactive: 0.003 | inactive: 0.048 | inactive: -0.026 | inactive: 0.023 | inactive: 0.107 | – | –
SLC25A42 (UniProt Q86VD7) in the list: inactive: -0.054 | inactive: 0.028 | inactive: 0.015 | inactive: -0.055 | inactive: 0.09 | inactive: -0.003 | inactive: -0.004 | inactive: 0.054 | inactive: -0.081 | inactive: -0.069 | inactive: 0.009 | inactive: -0.024 | inactive: -0.025 | inactive: 0.048 | inactive: -0.022 | inactive: -0.049 | inactive: 0.017 | inactive: 0.051 | – | –
